Experimental data from PMC3581573.
Results are given in words; binding and its absence hold for the method and conditions named. Some binding calls cover weakened binding; strength is not graded here.

Amino acid sequences for entries named in this document (tags omitted).
UniProt Q6NUA1: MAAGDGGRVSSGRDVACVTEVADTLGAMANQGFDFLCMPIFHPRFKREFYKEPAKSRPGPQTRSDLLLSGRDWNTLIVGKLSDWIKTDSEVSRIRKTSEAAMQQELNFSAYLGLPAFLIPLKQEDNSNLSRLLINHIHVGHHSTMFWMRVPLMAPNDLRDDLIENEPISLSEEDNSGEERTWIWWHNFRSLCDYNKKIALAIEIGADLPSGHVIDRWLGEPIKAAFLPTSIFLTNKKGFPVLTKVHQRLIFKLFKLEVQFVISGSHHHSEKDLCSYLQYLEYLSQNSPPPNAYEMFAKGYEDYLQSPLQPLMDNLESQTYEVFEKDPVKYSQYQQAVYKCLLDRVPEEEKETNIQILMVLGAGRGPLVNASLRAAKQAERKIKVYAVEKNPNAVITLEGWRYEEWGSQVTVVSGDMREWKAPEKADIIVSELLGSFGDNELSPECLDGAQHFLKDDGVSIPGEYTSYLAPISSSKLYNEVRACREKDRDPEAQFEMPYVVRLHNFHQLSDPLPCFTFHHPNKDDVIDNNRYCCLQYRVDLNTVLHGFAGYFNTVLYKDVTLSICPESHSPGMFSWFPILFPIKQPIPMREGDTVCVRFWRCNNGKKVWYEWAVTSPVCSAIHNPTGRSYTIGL

Tests used:
[1] = biological target: Xenopus laevis PRMT5 (Xenopus laevis) (UniProt Q6NUA1); experiment: crystal structure; XlPRMT5-MEP50 co-crystallised with 1 mM SAH; 30%–40% MPD, 100 mM Bis-Tris pH 5.5, 18°C; 3.0 Å; both purified
[2] = biological target: Xenopus laevis PRMT5 (Xenopus laevis) (UniProt Q6NUA1); experiment: FPLC-SAXS; in-line small-angle X-ray scattering over the gel-filtration peak; curve fitted to the crystal structure with CRYSOL; both purified
[3] = biological target: Xenopus laevis PRMT5 (Xenopus laevis) (UniProt Q6NUA1); experiment: AUC; sedimentation equilibrium (0.23, 0.77 and 0.9 µM tetramer) and velocity (0.97 µM); 20 mM ADA pH 6.5, 250 mM NaCl, 10% glycerol, 5 mM DTT, 20°C; also run in 2 M NaCl with no change in mass; both purified
[4] = biological target: Xenopus laevis PRMT5 (Xenopus laevis) (UniProt Q6NUA1); experiment: SEC-MALS; 15 µg PRMT5 and MEP50 in 20 mM ADA pH 6.5, 250 mM NaCl, 10% glycerol, 5 mM DTT; WTC030N5 column; both purified

binding [1]: binds | binding [2]: binds | binding [3]: binds | binding [4]: binds
B1: Xenopus laevis MEP50 (co-expressed with PRMT5) (protein, UniProt Q6NUD0 1-333)
chain: MSKGSAWGRPVTAPACMEVQIGAVRYRRDGALLLAASSLSSRTWGGSIWVFKDPEGAPNESLCTAGVQTEAGVTDVAWVSEKGILVASDSGAVELWEILEKESLLVNKFAKYEHDDIVKTLSVFSDGTQAVSGGKDFSVKVWDLSQKAVLKSYNAHSSEVNCVAACPGKDTIFLSCGEDGRILLWDTRKPKPATRIDFCASDTIPTSVTWHPEKDDTFACGDETGNVSLVNIKNPDSAQTSAVHSQNITGLAYSYHSSPFLASISEDCTVAVLDADFSEVFRDLSHRDFVTGVAWSPLDHSKFTTVGWDHKVLHHHLPSEGRTENLIATKAED
